Test results published in PMC11589570, “Critical assessment of LC3/GABARAP ligands used for degrader development and ligandability of LC3/GABARAP binding pockets” (Nature Communications, 2024).
Where “and” joins values, the source holds several entries; their conditions need not be identical. Equal entries are not always repeated. This continues a long series; more values of the same kind are listed elsewhere.

Tested on: U2OS cells
Experiment: Cell growth assay (IncuCyte confluence over 72 h)
Format: cell-based
Design: key: % of well area covered by cells (confluence)
Conditions: listed as AN1
Outline: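 U2OS cells were grown in DMEM with 10% FBS for 24 h before treatment. Confluence was then tracked by IncuCyte phase imaging over 72 h and expressed as % of well area covered by cells. Each point is the average of three wells.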

For `O=C1Nc2ccc(Br)cc2C1=Cc1cc(O)c(O)c(Br)c1` [compound 1], the U2OS cell growth (3 uM, 20 h) was 49.5372 and 63.9954 and 66.5979, the U2OS cell growth (3 uM, 22 h) was 71.9828 and 74.2941 and 71.4786 and the U2OS cell growth (3 uM, 24 h) was 68.3189 and 75.8628 and 73.4788. The U2OS cell growth (3 uM, 26 h) was 68.531 and 74.8786 and 76.0744, the U2OS cell growth (3 uM, 28 h) was 73.2218 and 82.5864 and 77.9138 and the U2OS cell growth (3 uM, 30 h) was 54.1977 and 72.9996 and 80.6851. The U2OS cell growth (3 uM, 32 h) was 79.6776 and 84.5464 and 83.8305, the U2OS cell growth (3 uM, 34 h) was 74.8762 and 79.5995 and 82.9707 and the U2OS cell growth (3 uM, 36 h) was 75.3876 and 84.9019 and 85.9964. For the same molecule, the U2OS cell growth (3 uM, 38 h) was 82.926 and 90.304 and 88.3974, the U2OS cell growth (3 uM, 40 h) was 88.2242 and 92.4014 and 92.1105 and the U2OS cell growth (3 uM, 44 h) was 94.0842 and 94.3574 and 93.1037. For the same molecule, the U2OS cell growth (3 uM, 46 h) was 82.2102 and 87.7126 and 90.0824, the U2OS cell growth (3 uM, 48 h) was 89.1328 and 96.9598 and 96.585 and the U2OS cell growth (3 uM, 50 h) was 90.0128 and 96.1353 and 95.2835. For the same molecule, the U2OS cell growth (3 uM, 52 h) was 95.9996 and 98.499 and 96.29, the U2OS cell growth (3 uM, 56 h) was 97.5757 and 98.1744 and 98.4306 and the U2OS cell growth (3 uM, 58 h) was 97.4982 and 98.984 and 98.5198. The U2OS cell growth (3 uM, 60 h) was 99.2604 and 99.8989 and 99.4423, the U2OS cell growth (3 uM, 62 h) was 99.5537 and 99.8097 and 99.0391 and the U2OS cell growth (3 uM, 64 h) was 96.4104 and 99.6436 and 99.704. The U2OS cell growth (3 uM, 66 h) was 99.6008 and 99.9064 and 99.545, the U2OS cell growth (3 uM, 68 h) was 99.3531 and 99.9053 and 99.6846 and the U2OS cell growth (3 uM, 70 h) was 99.6278 and 99.9759 and 99.8607. For the same molecule, the U2OS cell growth (3 uM, 72 h) was 99.9524 and 99.994 and 99.8329, the U2OS cell growth (3 uM, time 0 h) was 29.7201 and 47.2784 and 41.7377 and the U2OS cell growth (3 uM, time 2 h) was 29.7842 and 54.6617 and 48.4873. The U2OS cell growth (3 uM, time 4 h) was 33.9624 and 54.0786 and 52.9009, the U2OS cell growth (3 uM, time 6 h) was 38.8605 and 51.1228 and 50.7719 and the U2OS cell growth (3 uM, time 8 h) was 42.1337 and 57.7255 and 41.8843. For the same molecule, the U2OS cell growth (3 uM, time 22 h) was 60.2144 and 74.486 and 64.0311, the U2OS cell growth (3 uM, time 24 h) was 55.621 and 70.7252 and 66.2885 and the U2OS cell growth (3 uM, time 26 h) was 60.3322 and 73.2809 and 74.2642. For the same molecule, the U2OS cell growth (3 uM, time 28 h) was 62.8302 and 79.3873 and 67.846, the U2OS cell growth (3 uM, time 30 h) was 63.2269 and 78.0479 and 71.695 and the U2OS cell growth (3 uM, time 32 h) was 66.5849 and 82.5124 and 76.6779. The U2OS cell growth (3 uM, time 34 h) was 65.6557 and 75.9494 and 77.2737, the U2OS cell growth (3 uM, time 36 h) was 69.6563 and 84.3381 and 81.5701 and the U2OS cell growth (3 uM, time 38 h) was 74.2243 and 83.92 and 78.0675. For the same molecule, the U2OS cell growth (3 uM, time 40 h) was 76.6182 and 88.9657 and 83.5985, the U2OS cell growth (3 uM, time 42 h) was 77.3452 and 86.9234 and 83.4074 and the U2OS cell growth (3 uM, time 44 h) was 79.8815 and 89.9187 and 87.8127. For the same molecule, the U2OS cell growth (3 uM, time 46 h) was 69.75 and 87.7092 and 81.9132, the U2OS cell growth (3 uM, time 48 h) was 77.927 and 90.5394 and 87.7588 and the U2OS cell growth (3 uM, time 50 h) was 77.3102 and 91.5974 and 89.1349. The U2OS cell growth (3 uM, time 52 h) was 83.1764 and 94.577 and 93.1094, the U2OS cell growth (3 uM, time 54 h) was 81.4243 and 90.052 and 92.5145 and the U2OS cell growth (3 uM, time 56 h) was 87.3425 and 96.9804 and 93.3521. For the same molecule, the U2OS cell growth (3 uM, time 60 h) was 91.8917 and 99.073 and 98.2955, the U2OS cell growth (3 uM, time 62 h) was 92.7416 and 98.9046 and 97.9563 and the U2OS cell growth (3 uM, time 64 h) was 90.0012 and 99.0949 and 98.9711. The U2OS cell growth (3 uM, time 66 h) was 93.1677 and 99.0281 and 98.6746, the U2OS cell growth (3 uM, time 70 h) was 95.9313 and 99.6209 and 99.6222 and the U2OS cell growth (3 uM, time 72 h) was 96.7519 and 99.7991 and 99.6458. The U2OS cell growth (5 uM, 20 h) was 66.1105 and 66.9281 and 68.7152, the U2OS cell growth (5 uM, 22 h) was 72.1661 and 69.0033 and 72.3438 and the U2OS cell growth (5 uM, 24 h) was 76.2192 and 69.7907 and 74.8997. For the same molecule, the U2OS cell growth (5 uM, 26 h) was 75.7604 and 73.2768 and 78.9965, the U2OS cell growth (5 uM, 28 h) was 80.0384 and 75.5499 and 82.1865 and the U2OS cell growth (5 uM, 30 h) was 81.5639 and 78.4728 and 82.9593. The U2OS cell growth (5 uM, 32 h) was 84.2914 and 79.4472 and 84.9655, the U2OS cell growth (5 uM, 34 h) was 85.2005 and 83.1739 and 87.1373 and the U2OS cell growth (5 uM, 36 h) was 88.1636 and 83.5088 and 91.0693. The U2OS cell growth (5 uM, 38 h) was 89.6612 and 85.0601 and 91.0446, the U2OS cell growth (5 uM, 40 h) was 91.6041 and 89.3128 and 95.5071 and the U2OS cell growth (5 uM, 42 h) was 94.9692 and 92.1558 and 96.7607. For the same molecule, the U2OS cell growth (5 uM, 44 h) was 95.0679 and 92.2568 and 97.8147, the U2OS cell growth (5 uM, 46 h) was 93.3904 and 93.3329 and 95.5299 and the U2OS cell growth (5 uM, 50 h) was 95.5007 and 93.8085 and 97.3956. The U2OS cell growth (5 uM, 54 h) was 95.5438 and 96.6612 and 98.4762, the U2OS cell growth (5 uM, 56 h) was 99.0888 and 97.7893 and 98.9685 and the U2OS cell growth (5 uM, 60 h) was 99.625 and 98.7381 and 99.85. The U2OS cell growth (5 uM, 62 h) was 99.5606 and 98.9479 and 99.8264, the U2OS cell growth (5 uM, 64 h) was 99.7444 and 98.9484 and 99.9513 and the U2OS cell growth (5 uM, 66 h) was 99.8972 and 99.2655 and 99.5228. The U2OS cell growth (5 uM, 68 h) was 99.8256 and 99.7983 and 99.8674, the U2OS cell growth (5 uM, 70 h) was 99.9624 and 99.7878 and 99.9768 and the U2OS cell growth (5 uM, 72 h) was 99.9714 and 99.9585 and 99.9158. The U2OS cell growth (5 uM, time 0 h) was 36.551 and 37.5498 and 37.4124, the U2OS cell growth (5 uM, time 2 h) was 43.9795 and 41.3375 and 41.452 and the U2OS cell growth (5 uM, time 4 h) was 47.3866 and 48.3912 and 45.4736. For the same molecule, the U2OS cell growth (5 uM, time 6 h) was 49.4313 and 48.8996 and 59.1056.
